According to paper PMC9507964:
These are yes or no findings as the source states them, for the method shown. Some binding calls cover weakened binding; strength is not graded here.

Chains of the proteins cited; added tags and fusions are not shown.
UniProt Q8N3Y1: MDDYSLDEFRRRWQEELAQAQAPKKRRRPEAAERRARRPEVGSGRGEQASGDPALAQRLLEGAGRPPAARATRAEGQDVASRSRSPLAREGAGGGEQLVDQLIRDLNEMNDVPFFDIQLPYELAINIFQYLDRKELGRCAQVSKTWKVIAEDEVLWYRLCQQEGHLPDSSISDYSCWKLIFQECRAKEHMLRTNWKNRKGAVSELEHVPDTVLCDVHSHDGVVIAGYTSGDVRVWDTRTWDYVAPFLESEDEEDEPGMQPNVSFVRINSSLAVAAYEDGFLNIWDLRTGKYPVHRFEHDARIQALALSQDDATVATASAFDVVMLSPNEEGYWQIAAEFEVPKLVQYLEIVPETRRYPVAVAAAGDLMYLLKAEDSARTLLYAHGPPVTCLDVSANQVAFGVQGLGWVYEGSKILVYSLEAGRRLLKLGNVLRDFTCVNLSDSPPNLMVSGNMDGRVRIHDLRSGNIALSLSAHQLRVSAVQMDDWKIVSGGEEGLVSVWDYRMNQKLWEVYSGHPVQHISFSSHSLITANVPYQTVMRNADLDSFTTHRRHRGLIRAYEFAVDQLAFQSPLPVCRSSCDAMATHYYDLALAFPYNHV
UniProt P63208: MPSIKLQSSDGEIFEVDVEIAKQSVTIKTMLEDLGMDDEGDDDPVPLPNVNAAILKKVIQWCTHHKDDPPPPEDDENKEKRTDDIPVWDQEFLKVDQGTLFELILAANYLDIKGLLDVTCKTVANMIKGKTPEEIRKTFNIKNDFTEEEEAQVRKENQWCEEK

Target: FBXW8 (human) (UniProt Q8N3Y1)
Assay: cryo-EM structure; CRL7^FBXW8 co-expressed in HEK293S and purified as a complex; 50 mM Tris pH 7.5, 150 mM NaCl, 5 mM DTT; about 1.7 mg/ml; Titan Krios 300 kV; both purified

binding: binds
Substance: SKP1 (from UniProt P63208 1-163)
